Consider five compounds from the supplement of paper PMC11659162.

Assay [1] relates to H4 GFP-LC3. Nature of the assay: cell viability (scaled to control) (fraction of control); higher = more viable cells.
For assay [2], the system named is H4 GFP-LC3. Description: ACBP immunofluorescence intensity (scaled to control) (AU (scaled)); higher = more intracellular ACBP/DBI.

Structures are written as SMILES. Some of the results follow. This is a noisy data set.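 The cells are a human neuroglioma line carrying a green fluorescent autophagy reporter.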

In the case of `COc1cc2nc(N3CCN(C(=O)c4ccco4)CC3)nc(N)c2cc1OC` (5 µM), the cell viability in assay [1] (6 h) is 0.904; in assay [1] (24 h) it was 0.944. Also, the ACBP immunofluorescence intensity came to 0.85 in assay [2] (6 h) and 0.514 in assay [2] (24 h).

On to `N=C(N)S/C=C\C(=O)O` (5 µM), for which the cell viability in assay [1] (6 h) was 0.927; in assay [1] (24 h), 0.938. Moreover, the figures for the ACBP immunofluorescence intensity in assay [2] (6 h) and in assay [2] (24 h) were 0.875 and 0.857, respectively.

Turning to `CSCC[C@H](NC(=O)[C@H](Cc1ccc(OS(=O)(=O)O)cc1)NC(=O)[C@@H](N)CC(=O)O)C(=O)NCC(=O)N[C@@H](Cc1c[nH]c2ccccc12)C(=O)N[C@@H](CCSC)C(=O)N[C@@H](CC(=O)O)C(=O)N[C@@H](Cc1ccccc1)C(N)=O` (5 µM), the cell viability was determined as 1.19 in assay [1] (6 h) and 0.98 in assay [1] (24 h). Moreover, the ACBP immunofluorescence intensity was found to be 0.297 in assay [2] (6 h) and 0.647 in assay [2] (24 h).

Turning to `NC(=O)CC(NC(=O)Cc1ccc(O)cc1O)C(=O)O` (stereo not given) (5 µM), the cell viability stood at 1.16 in assay [1] (6 h) and 1.15 in assay [1] (24 h). In addition, the ACBP immunofluorescence intensity in assay [2] (6 h) was 0.921; in assay [2] (24 h), 0.448.

As for `COc1ccc(-c2ccc(=N)n(CCCC(=O)O)n2)cc1` (5 µM), the cell viability in assay [1] (6 h) amounted to 0.944; in assay [1] (24 h), 1.24. In addition, the ACBP immunofluorescence intensity in assay [2] (6 h) is 0.856; in assay [2] (24 h), 0.59.
